Data on three molecules can be found in US20190391163A1.

Chains of the proteins cited; added tags and fusions are not shown. Lines headed by an entry give the natural chain unless they say otherwise; changes in a name come on top.
UniProt P12109: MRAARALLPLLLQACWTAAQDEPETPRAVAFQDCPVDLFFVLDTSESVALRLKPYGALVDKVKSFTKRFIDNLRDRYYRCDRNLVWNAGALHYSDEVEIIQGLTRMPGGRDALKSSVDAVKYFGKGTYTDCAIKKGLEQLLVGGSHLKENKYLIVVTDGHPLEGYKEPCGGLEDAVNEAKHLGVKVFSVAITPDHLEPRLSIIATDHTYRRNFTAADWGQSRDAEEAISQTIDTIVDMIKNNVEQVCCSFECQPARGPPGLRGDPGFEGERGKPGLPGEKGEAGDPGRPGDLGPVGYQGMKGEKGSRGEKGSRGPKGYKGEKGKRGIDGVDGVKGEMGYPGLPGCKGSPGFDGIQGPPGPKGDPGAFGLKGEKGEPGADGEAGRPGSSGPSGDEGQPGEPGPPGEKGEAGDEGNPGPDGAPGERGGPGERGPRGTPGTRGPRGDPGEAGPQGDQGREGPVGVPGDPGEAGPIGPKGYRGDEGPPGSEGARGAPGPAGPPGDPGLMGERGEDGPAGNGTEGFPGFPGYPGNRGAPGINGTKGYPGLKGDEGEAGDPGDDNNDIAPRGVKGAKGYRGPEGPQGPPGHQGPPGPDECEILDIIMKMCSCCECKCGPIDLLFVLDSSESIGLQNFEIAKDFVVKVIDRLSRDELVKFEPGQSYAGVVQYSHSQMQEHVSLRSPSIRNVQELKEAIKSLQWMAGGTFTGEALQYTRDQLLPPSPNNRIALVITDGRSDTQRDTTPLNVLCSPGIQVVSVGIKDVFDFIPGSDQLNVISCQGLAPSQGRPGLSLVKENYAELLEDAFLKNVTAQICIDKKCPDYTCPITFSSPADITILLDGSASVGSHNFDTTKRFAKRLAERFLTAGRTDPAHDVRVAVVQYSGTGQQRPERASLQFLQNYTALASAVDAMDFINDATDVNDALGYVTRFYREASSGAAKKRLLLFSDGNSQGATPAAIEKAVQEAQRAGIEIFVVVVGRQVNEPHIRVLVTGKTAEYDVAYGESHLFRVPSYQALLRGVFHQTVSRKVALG

Test [1] addresses T1, amine oxidase, copper containing 3 protein (AOC3) (human) (UniProt Q16853).
T1 sequence (looked up): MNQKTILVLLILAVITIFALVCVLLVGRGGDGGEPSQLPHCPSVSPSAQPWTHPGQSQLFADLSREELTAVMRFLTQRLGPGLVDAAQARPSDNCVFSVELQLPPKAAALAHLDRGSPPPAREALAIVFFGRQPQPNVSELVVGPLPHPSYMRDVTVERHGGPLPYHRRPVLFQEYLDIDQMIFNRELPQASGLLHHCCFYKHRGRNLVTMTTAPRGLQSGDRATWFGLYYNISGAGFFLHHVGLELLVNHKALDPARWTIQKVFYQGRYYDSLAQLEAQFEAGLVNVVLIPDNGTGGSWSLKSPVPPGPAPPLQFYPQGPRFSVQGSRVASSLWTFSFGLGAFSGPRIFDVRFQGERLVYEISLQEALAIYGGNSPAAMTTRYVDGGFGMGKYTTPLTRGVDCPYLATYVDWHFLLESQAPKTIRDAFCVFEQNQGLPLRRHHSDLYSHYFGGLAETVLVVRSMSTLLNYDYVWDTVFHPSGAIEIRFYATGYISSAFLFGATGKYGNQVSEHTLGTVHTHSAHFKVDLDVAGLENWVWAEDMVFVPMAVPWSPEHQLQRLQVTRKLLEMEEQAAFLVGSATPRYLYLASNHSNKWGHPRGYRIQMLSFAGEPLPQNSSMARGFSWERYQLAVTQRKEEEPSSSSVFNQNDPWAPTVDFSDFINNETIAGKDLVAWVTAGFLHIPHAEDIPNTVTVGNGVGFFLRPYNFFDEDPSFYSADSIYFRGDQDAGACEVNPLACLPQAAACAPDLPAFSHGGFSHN
The experiment in a line: target identification by immunoprecipitation and mass spectrometry.

The target of test [2] is T1, amine oxidase, copper containing 3 protein (AOC3) (human). The experiment in a line: immunoprecipitation of SGBS cell EVs with antibody on CNBr-activated sepharose beads, eluate identified by mass spectrometry.
Test [3] addresses Collagen Type VI alpha 1/2/3 (COL6A1/2/3) (human) (UniProt P12109). The experiment in a line: target identification by immunoprecipitation and mass spectrometry.
Test [4] has the same target. The experiment in a line: immunoprecipitation of SGBS cell EVs with antibody on CNBr-activated sepharose beads, eluate identified by mass spectrometry.

Changes are numbered by the printed parent chain. No constants are given. Whether binding was seen depends on the method and setting. In cells and extracts the contact can be indirect. Here binding means that the protein was enriched with, or labelled near, the bait; the list need not be complete.

B1: antibody 15G1 (antibody, rat IgG2a, V domains shown)
VH: EVQILETGGGLVKPGGSLRLSCATSGFNFNDYFMNWVRQAPGKGLEWVAQIRNKHYNYATYYGESLEGRVTISRDDSKSNVYLQVNSLRPEDTAIYYCSRSSYLRYFDFWGPGTMVTVSS
VL: DIQMTQSPASLSASLEEIVTITCQASQDIGNWLAWYQQKPGKSPQLLIYDATTLADGVPSRFSGSRSGTQFSLKISRLQVEDIGIYYCQQASSAPWTFGGGTNLELKR
With B1, the binding entry in test [1] and in test [2] was “binds” throughout.

B2: antibody 14H5 (antibody, rat IgG2b, V domains shown)
VH: QVQLQQSGAELAKPGSSVKISCKASGFTFTGYYISWIKQTTGQGLDYIGYINTGSGGTNYNEKFKGKATLTVDKSSSTAFMQLSSLTPDDSAVYYCARTYWRRYFDYWGQGVMVTVSS
VL: B1 VL with A13V, E17K, D50G, T53S, F71Y, W96L, G100S, N103K, L106I
Regarding B2, the binding entry in test [1] and in test [2] was “binds” in each case.

B3: antibody 23A11 (antibody, V domains shown)
VH: EVKLLESGGGLVQPGGSMRLSCAASGFTFTDFYMNWIRQPSGKAPEWLGFIRNKANGYTTESNPSVKGRFTISRDNTQSMLYLQMNTLRVEDTATYYCARGGFDVYSGLLPDYWGQGVMVTVSS
VL: DIVMTQSPSSLAVSAGETVTINCKSSQNLLYRGNQKNYLAWYQQKPGQSPKLLIFWTSTRQPGVPDRFIGSGSGTDFTLTISSVQAEDLAIYYCQQYYGTPFTFGSGTKLEIR
Turning to B3, the binding result in test [3] and in test [4] was “binds” each time.
